Results as given in patent US20070009972A1, “Epidermal growth factor receptor polypeptides and antibodies” (priority 2005, published 2007).
No constants are given. Whether binding was seen depends on the method and setting. Some entries that bind do so weakly or less than the wild type.

T1: Biotin-…-CONH2 (SEQ ID NO:9)
T1 sequence (peptide, N-terminal biotin; C-terminal amide (CONH2); cyclic): GCAHYIDGPHCG

B1: SEQ ID NO 26 (scFv)
scFv: EVQLVESGGGLVQPGGSLRLSCAASGFTFSNSAMSWVRQAPGKGLEWVSVIHSGGSTTYYADSVKGRFTISRDNSKNTLYLQMSSLRAEDTAVYYCAKHTSTWWGGEDHYGMDVWGQGTTVTVSSGILGSGGGGSGGGGSGGGGSQSVLTQPASVSGSPGQSVTISCTGTSSDVGSYMFVSWYQQHPGKAPKLMISDVSNRPSGVPDRFSGSKSGNTASLTISGLRAEDEADYYCSSYTSTNTRVFGGGTKLTVLSGIQKLISEEDL
B2: SEQ ID NO 23 (scFv)
scFv: QVQLQQSGPGLVKPSQTLSLTCAISGDSVSSNRAAWNWIRQSPSRGLEWLGRTYYRSKWYYDYTLSVQGRITISPDTSRNQVFLQLNYVTPEDTAVYYCARVPQDSSGSRHDAFDFWGQGTMVTVSSGILGSGGGGSGGGGSGGGGSQPVLTQSPSASGTPGQRVTLSCAGSSSDIGSNPVNWYQQLPGTAPKLLMYSNDQRPSGVSDRFSGSKSGTSASLAVSGLQSEDEADYYCAAWDDSLNGWVFGGGTKLTVLSGIQKLISEEDL
B3: SEQ ID NO 30 (scFv)
scFv: QVQLKQSGPGLVNPSQTLSLTCAISGDSVSSDSAAWNWIRQSPSRGLEWLGRTYYRSKWYNEYTESVKSRIIINPDTSKNQFSLQLNSVTPEDTALYYCARFLRGTFDIWGQGSMVTVSSASTKGPSGILGSGGGGSGGGGSGGGGSNFMLTQPHSVSESPGKTVTISCTGSSGSIATNYVQWYQQRPGSAPTTVIYENNHRPSGVPDRFSGSIDSSSNSASLTISGLKTEDEAGYYCQSSDNDFHAVFGGGTQLTVLSGIQKLISEEDL

Biological target: T1, Biotin-…-CONH2 (SEQ ID NO:9)
Assay: yeast surface display screen of naive human library against the peptide (1 round MACS, 3 rounds FACS); clone isolated as specific binder

| binding | Binder |
| --- | --- |
| binds | B1 |
| binds | B2 |
| binds | B3 |
